Results taken from PMC5830412.
No constants are given. Whether binding was seen depends on the method and setting. Binding seen in cells or lysates may run through a third protein. Some binding calls cover weakened binding; strength is not graded here.

Protein sequences, listed by entry. Tags and fused reporters are not part of them.
UniProt P38198: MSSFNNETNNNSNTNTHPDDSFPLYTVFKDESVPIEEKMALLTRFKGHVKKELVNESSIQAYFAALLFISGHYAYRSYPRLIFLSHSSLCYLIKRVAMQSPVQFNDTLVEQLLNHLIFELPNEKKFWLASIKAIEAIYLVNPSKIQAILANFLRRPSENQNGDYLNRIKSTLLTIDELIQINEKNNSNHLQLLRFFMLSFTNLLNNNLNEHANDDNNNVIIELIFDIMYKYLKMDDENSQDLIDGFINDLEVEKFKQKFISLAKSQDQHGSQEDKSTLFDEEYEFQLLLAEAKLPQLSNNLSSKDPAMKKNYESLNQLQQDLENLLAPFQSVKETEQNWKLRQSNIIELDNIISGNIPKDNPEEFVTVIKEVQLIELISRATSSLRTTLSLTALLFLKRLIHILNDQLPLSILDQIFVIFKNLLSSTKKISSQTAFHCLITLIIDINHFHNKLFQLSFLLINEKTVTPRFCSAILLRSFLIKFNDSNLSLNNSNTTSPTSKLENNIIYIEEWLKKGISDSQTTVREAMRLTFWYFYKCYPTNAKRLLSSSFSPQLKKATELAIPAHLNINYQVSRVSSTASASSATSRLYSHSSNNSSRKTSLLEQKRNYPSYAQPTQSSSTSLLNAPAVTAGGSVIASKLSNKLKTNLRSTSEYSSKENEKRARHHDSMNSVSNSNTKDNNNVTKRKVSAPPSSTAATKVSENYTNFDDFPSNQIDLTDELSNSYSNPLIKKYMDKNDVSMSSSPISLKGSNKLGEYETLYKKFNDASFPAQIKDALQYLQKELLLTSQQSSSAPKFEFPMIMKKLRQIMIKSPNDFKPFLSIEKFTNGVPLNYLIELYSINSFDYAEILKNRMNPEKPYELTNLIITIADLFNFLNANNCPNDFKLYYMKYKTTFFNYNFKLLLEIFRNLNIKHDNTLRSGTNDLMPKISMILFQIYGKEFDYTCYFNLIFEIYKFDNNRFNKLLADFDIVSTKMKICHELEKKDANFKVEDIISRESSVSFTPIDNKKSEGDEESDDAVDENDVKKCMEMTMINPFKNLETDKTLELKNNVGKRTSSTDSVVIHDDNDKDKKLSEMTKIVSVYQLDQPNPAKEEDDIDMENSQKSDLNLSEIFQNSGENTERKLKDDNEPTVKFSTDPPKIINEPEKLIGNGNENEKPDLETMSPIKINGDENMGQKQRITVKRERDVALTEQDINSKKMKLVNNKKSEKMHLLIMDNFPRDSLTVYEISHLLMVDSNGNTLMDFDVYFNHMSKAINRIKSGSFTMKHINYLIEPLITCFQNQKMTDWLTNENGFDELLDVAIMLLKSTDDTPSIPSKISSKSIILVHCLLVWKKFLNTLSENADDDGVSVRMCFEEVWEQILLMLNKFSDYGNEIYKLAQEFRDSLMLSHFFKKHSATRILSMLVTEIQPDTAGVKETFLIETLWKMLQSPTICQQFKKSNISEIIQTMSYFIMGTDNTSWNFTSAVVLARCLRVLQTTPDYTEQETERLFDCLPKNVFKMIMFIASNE

T1: Spc105 (S. cerevisiae) (UniProt P53148)
T1 sequence: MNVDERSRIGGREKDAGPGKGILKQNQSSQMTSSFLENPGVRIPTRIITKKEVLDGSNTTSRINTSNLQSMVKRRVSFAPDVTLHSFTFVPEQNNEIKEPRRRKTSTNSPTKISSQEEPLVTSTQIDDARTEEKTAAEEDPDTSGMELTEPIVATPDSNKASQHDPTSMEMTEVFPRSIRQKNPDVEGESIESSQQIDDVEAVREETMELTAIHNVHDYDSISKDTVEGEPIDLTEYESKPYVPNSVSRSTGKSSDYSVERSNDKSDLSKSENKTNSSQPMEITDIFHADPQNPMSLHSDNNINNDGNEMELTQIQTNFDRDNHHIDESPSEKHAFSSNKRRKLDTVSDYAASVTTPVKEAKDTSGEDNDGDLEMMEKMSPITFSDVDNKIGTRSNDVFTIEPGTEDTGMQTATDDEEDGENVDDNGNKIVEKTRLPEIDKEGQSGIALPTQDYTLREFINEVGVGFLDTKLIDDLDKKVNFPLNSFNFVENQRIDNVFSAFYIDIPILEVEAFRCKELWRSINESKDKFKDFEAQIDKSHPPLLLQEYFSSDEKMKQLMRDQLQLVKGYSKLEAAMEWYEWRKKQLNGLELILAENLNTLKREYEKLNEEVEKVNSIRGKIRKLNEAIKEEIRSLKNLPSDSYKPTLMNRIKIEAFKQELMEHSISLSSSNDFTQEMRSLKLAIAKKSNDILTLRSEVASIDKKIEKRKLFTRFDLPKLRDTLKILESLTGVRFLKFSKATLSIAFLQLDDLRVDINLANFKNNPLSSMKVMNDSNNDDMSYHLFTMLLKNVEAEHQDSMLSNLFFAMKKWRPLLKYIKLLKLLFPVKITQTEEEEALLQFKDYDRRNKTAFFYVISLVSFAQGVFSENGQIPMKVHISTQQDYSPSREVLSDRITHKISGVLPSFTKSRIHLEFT


Tests used:
Spc105 (S. cerevisiae) [1] = target: T1, Spc105 (S. cerevisiae); test: co-IP; purification on anti-FLAG agarose from lysates of cycling cells or cells arrested with nocodazole for 3.5 h; western blot with anti-myc and anti-FLAG-HRP; for Spc105-6A the WT Spc105 was depleted with IAA
Spc105 (S. cerevisiae) [2] = target: T1, Spc105 (S. cerevisiae); test: co-IP; cells treated with nocodazole; no figure is pointed to for this result

binding (Spc105 (S. cerevisiae) [1]) | binding (Spc105 (S. cerevisiae) [2]) | Molecule
binds |  | Stu1 (from UniProt P38198 1-1513)
 | no binding | Slk19 (protein, UniProt Q08581 1-821) MNEVPTTPVRLILGQAQQREQNSENCSQERNPRTFNSEPDSSFNSPGSSQFVIHPHEPLEKEKDEKQDLDRSIDYGRSSALNNKNNANPLENIDINKMFDDKKSDSGTNDDKGGASTSDKHVLALNYSPIRVEMNSSEKRSDKNVDVDENDKEGSHINKKLKLQLESVPDLKQSSTKDIINDKEEIMSSPMAIDMIETNISPNKFIINDGVERNDSFNINTDTLKLENDINEKQQEEDFIKSNSNNVVNIDNAYKEKEDEENDITNSHINRLTPLYETSARESNSNEEGRNDYDDDNQLDIRHDNFQIVAKRNEELTDQIYHLNQMLNSLISKNESLSFQYEKLNKNHQLLIDLTNEKLDKLNTERESDIAKVEKFKKRIKELNTEIKVLNSNQKILQEKFDASITEVNHIKGEHENTVNTLQQNEKILNDKNVELENMKAELKGNNDKLSEYETTLNDLNSRIVQLNDKIESTDIVLKSKENELDNLKLSLKETLSISKDFNDSDLIGQINELISTKNNLQQKMDDLNNLNDDNLKVVQDKLIKNEETLKLKEAEIDSLNSEMDELKKQITSKDDEFKMWQSKYETVEDEAKIRNAEVTELNGDIEDLKESKLHLEETITELENKVHKLENECELEKQKFEKTSLELESLQLKNSNIQAEHIKELENLHENLISLQNELKISSDRITTLTKENEVLMEQNNNNNNSVTLSNDQKDRDDEKIKSLGKQVQDWKEKYEAKEKDTNKRLKLLAEDLYIQYSSKHEQKVKLLKKGYENKYQNKFDQLNLENKTLSEEIEQLNKQLSSEREEKQELLKLLENEKK
